Hit rate of the full screen: of about 78,000 compounds, about 1,800 (2.3%) were called active. The inconclusive results got no clear call from the source; some entries with a clear call stand among them for comparison. Cut-off read from the data, not from the text of the source: active = inhibition above about 30%; inconclusive = mostly about 10% to 28%; inactive = weaker than that.
What follows are compounds tested against Interleukin-1 receptor-like 1 (Homo sapiens) (UniProt Q01638) (assay: blocks human ST2 binding to IL-33, primary screen, biochemical, AlphaLISA (AID 1259354)). Conditions: AlphaLISA ST2-Fc/biotin-IL-33 interaction, 1 h; at 17 µM, active compounds read high.

Chains of the proteins cited; added tags and fusions are not shown. Lines headed by an entry give the natural chain unless they say otherwise; changes in a name come on top.
UniProt Q01638: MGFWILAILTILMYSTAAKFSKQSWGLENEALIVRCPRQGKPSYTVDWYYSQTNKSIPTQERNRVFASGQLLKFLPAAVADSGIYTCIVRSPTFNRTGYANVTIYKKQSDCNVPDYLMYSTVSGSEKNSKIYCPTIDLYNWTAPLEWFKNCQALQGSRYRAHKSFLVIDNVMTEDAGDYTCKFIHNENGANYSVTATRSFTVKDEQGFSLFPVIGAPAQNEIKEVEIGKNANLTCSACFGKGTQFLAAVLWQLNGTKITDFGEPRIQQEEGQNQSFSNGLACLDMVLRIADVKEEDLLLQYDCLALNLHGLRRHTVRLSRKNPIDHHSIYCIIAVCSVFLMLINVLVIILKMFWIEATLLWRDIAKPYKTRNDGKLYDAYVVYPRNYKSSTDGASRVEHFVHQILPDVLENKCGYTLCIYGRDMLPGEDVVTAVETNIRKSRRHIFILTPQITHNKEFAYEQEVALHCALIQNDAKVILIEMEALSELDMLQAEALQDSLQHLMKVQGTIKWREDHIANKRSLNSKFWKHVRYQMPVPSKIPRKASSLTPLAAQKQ

| Compound | inhibition |
| --- | --- |
| NCCC1CCCN(C(=O)c2c(O)cccc2O)C1 (stereo not given) | inconclusive: 13% |
| COc1ccc(OC)c(C2NC(C(=O)O)C3C(=O)N(c4ccccc4)C(=O)C23)c1 (stereo not given) | inactive |
| CC(C)NC(=O)C(=O)Nc1cccc(Cl)c1 | inconclusive: 16% |
| O=C(CSc1nnc(-c2cccnc2)n1-c1ccccc1)N1CCN(CCO)CC1 | inconclusive: 10% |
| COc1cccc(-c2nnc(NC(=O)c3ccc(S(=O)(=O)N4CC(C)OC(C)C4)cc3)o2)c1 (stereo not given) | inconclusive: 12% |
| Cc1ccc(C2C(C#N)=C(N)Oc3c2c(C)nn3-c2ccccc2)cc1 (stereo not given) | inconclusive: 10% |
| O=c1c2oc3ccccc3c2ncn1Cc1ccccc1F | inconclusive: 25% |
| CCn1c(CC2CCNCC2)nn(Cc2cc(-c3ccccn3)no2)c1=O | inconclusive: 13% |
| O=C(COc1ccc(Cl)cc1)Nc1ncc(S(=O)(=O)c2ccc([N+](=O)[O-])cc2)s1 | inconclusive: 17% |
| O=C1CCCCCN1SSN1CCCCCC1=O | inconclusive: 13% |
| O=C(CCC1CCCCC1)N(c1ccc(F)cc1)C1C=CS(=O)(=O)C1 (stereo not given) | inactive |
| O=c1ccc(NS(=O)(=O)c2ccccc2)c2n1C[C@H]1C[C@@H]2CN(S(=O)(=O)c2ccccc2)C1 | inconclusive: 16% |
| COc1ccccc1N1CCN(Cc2cccc3nccnc23)C(C)C1 (stereo not given) | inconclusive: 14% |
| O=C(C1CNCCN1C(=O)c1cc2c(s1)CCCC2)N1CCOCC1 (stereo not given) | inactive |
| Cc1nc2c([nH]1)c(=O)n(C)c(=O)n2Cc1ccco1 | inactive |
| CN(CCNC(=O)CC12CC3CC(CC(C3)C1)C2)S(C)(=O)=O | inconclusive: 16% |
| Cn1cncc1-c1nnc([C@H]2CCN(Cc3ccc(F)c(F)c3)C2)o1 | inconclusive: 19% |
| O=C(Cn1c(=O)n(-c2ccc(F)c(Cl)c2)c(=O)c2sccc21)NCC1CCCO1 (stereo not given) | inconclusive: 14% |
| Cc1ccc(CNC(=O)c2cc(NC(=O)C3CCCO3)c3c(c2)nc(C2CCC2)n3C)cc1 (stereo not given) | inconclusive: 24% |
| CCCCOC(=O)C1=C(C)Nc2ncnn2C1c1ccc(Br)cc1 (stereo not given) | inactive |
| CC1=C(C(=O)N(CC2CCN(C3Cc4ccccc4C3)CC2)CC2CCCO2)OCCO1 (stereo not given) | inconclusive: 12% |
| Cn1cc(/C=C/C(=O)N(Cc2ccsc2)C(C)(C)C)cn1 | inconclusive: 29% |
| COCCNC(=O)C[C@@H]1O[C@H](CNS(=O)(=O)c2ccccc2)[C@@H](O)[C@H]1O | inconclusive: 21% |
| COc1ccc(NC(=O)C2=C(C)NC(=O)NC2c2ccccc2C)cc1 (stereo not given) | inactive |
| CC(=O)N1CCC(N2CC[C@H](c3nnc(C(C)(C)C)o3)C2)CC1 | inconclusive: 24% |

A few values from the results shown.
For inhibition, O=C1CCCCCN1SSN1CCCCCC1=O reads inconclusive: 13%
For inhibition, O=C(CCC1CCCCC1)N(c1ccc(F)cc1)C1C=CS(=O)(=O)C1 (stereo not given) reads inactive

From PubChem BioAssay AID1259354 (Paczesny and Yang Labs, IUPUI and University of Michigan, 2018)
